Reference: publication PMC6928761, “Trypanocidal Mechanism of Action and in silico Studies of p-Coumaric Acid Derivatives” (International Journal of Molecular Sciences, 2019)

What was measured:
[1] = test system: T. cruzi (strain Y) trypomastigotes; test: Effect on T. cruzi trypomastigote forms (24 h); format: cell-based, Trypanosoma cruzi; details: selectivity index vs LLC-MK2
Protocol: (§1) The trypanocidal activity of the p-coumaric derivatives (1–12) were evaluated against epimastigotes and trypomastigote forms of T. cruzi (strain Y) at 24 h of incubation and in host LLC-MK2 cells at 24 h of exposure to different concentrations: 100; 50; 25; 12.5; 6.25; 3.12; and 1.56 μg/mL. In the MTT assay it was possible to calculate the IC50 of the tested substances through cell viability, which was calculated in relation to the negative control, whose absorbance was considered 100%.
Acquisition of T. cruzi trypomastigotes was by infection of LLCMK2 cells using trypomastigotes in T-25/75cm^2 containers at 37 °C with 5% CO2 atmosphere in DMEM (Vitrocell, São Paulo, Brazil) and supplementation of 1% antibiotics and 2% SFB for 24 h. Then the trypomastigotes were plated and treated with p-coumaric acid derivatives. Cell viability was counted after 24 h of incubation at 37 °C. LC50 was obtained. While relative cell viability was calculated using sterile PBS-treated cells for both negative controls and experiments, all in triplicate.

[2] = test system: T. cruzi (strain Y) epimastigotes; test: Effect on T. cruzi epimastigote forms (24 h, Neubauer chamber count); format: cell-based, Trypanosoma cruzi; details: selectivity index vs LLC-MK2
Protocol: as §1
Preparation of T. cruzi epimastigote was performed by cultivation in 96-well Y-staining plates at a density of 10^6 cells/mL, and using liver tryptose infusion with 10% fetal bovine serum (SFB) supplementation, and 1% antibiotic. They were then treated with p-coumaric derivatives. The grown parasites presenting inhibition were collected and quantified in a Neubauer chamber after incubation at 28 °C for 24 h. To determine relative viability, parasites treated only with sterile PBS medium were used as negative controls (viability of 100%), and experiments were performed in triplicate.

| SMILES | Y strain (Tripomastigotes) SI [1] | Y strain (Epimastigotes) SI [2] |
| --- | --- | --- |
| CCCOC(=O)/C=C/c1ccc(O)cc1 [compound 3, Propyl p-coumarate] | 3.8 | 26.55 |
| CCCCCOC(=O)/C=C/c1ccc(O)cc1 [compound 7, pentyl p-coumarate] | 2 | 23.86 |
| CC(C)CCOC(=O)/C=C/c1ccc(O)cc1 [compound 8, isopentyl p-coumarate] | 1.08 | 9.1 |
